In PMC3741148:
These are yes or no findings as the source states them, for the method shown. Binding seen in cells or lysates may run through a third protein. Some results given as binding are weak or reduced against the parent protein; the word gives no strength.

Sequences of proteins named here, by UniProt entry; tags and fusion partners are left off. Residues count along the entry.
UniProt P09727, residues 18-215: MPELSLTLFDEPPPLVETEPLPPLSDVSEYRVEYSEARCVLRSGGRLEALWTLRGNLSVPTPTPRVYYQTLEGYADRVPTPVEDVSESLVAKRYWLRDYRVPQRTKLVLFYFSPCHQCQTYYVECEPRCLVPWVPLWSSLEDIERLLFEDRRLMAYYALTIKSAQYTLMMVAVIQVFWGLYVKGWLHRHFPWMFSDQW

Target: T1, Derlin-1 (endogenous) (human (endogenous in U373MG and HeLa)) (UniProt Q9BUN8)
T1 sequence: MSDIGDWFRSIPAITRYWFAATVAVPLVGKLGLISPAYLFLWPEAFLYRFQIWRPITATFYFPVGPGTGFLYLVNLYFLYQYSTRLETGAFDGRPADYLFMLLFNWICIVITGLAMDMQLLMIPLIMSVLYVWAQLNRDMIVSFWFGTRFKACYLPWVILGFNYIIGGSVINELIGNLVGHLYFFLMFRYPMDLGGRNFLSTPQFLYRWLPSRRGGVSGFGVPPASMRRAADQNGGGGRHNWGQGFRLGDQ
Assay: co-IP; sequential co-immunoprecipitation from U373MG-US11 cells labelled with 35S-methionine/cysteine for 1 hr, lysed in 1% digitonin; first precipitation with the antibody to the bait, eluate in SDS/DTT, diluted 10-fold in 1% NP-40, second precipitation, SDS-PAGE, autoradiography

With “Human cytomegalovirus (HCMV) US11 (from UniProt P09727 18-215)” the binding was “binds”.
